Screening data, single-dose tests

By UniProt entry, the sequences of proteins in these tests, tags left out.
UniProt I6X8D2, whole entry: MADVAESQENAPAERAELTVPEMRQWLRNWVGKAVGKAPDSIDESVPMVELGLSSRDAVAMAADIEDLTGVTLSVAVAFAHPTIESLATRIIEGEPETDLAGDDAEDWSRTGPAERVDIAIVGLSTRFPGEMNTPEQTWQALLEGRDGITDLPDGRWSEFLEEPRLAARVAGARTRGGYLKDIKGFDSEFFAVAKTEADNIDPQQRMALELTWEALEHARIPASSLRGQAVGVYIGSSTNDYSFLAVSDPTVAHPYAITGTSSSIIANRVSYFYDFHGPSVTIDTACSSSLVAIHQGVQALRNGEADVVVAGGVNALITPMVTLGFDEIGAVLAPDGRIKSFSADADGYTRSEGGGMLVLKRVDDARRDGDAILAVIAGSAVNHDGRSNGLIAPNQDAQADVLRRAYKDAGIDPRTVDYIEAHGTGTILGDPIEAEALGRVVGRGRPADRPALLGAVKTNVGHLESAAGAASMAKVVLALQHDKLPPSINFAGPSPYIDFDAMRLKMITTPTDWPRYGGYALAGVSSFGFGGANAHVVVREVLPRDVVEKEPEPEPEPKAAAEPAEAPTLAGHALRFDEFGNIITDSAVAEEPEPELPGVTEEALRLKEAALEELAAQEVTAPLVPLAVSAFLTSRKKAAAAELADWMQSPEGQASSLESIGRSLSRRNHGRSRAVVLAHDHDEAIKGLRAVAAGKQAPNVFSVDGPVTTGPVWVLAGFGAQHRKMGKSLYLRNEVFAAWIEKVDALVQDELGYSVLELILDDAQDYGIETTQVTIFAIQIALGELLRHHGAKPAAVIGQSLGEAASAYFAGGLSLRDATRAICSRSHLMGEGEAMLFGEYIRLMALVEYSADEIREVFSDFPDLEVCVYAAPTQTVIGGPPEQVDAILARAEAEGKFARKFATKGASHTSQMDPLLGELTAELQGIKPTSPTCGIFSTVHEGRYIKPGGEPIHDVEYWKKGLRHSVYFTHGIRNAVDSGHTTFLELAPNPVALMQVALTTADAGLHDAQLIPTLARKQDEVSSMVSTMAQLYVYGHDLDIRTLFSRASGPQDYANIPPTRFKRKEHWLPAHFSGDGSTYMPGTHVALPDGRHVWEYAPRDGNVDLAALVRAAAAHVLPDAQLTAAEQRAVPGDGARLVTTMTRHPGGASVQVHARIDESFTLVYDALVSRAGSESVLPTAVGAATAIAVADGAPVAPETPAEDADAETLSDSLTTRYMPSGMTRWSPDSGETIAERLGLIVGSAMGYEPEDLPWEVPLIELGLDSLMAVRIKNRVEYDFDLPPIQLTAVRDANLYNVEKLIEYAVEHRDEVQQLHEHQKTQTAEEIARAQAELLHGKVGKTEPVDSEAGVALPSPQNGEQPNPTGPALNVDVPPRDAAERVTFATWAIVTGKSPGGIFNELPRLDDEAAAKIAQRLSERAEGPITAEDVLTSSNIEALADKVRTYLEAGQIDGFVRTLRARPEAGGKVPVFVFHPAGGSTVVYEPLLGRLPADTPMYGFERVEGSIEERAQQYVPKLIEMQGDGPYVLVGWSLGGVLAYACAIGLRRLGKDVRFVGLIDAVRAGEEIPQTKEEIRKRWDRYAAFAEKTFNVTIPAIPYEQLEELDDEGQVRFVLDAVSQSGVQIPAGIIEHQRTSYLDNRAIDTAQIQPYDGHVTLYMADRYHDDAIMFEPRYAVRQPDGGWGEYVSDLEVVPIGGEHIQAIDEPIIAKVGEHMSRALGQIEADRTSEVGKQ
UniProt P9WNZ1, whole entry: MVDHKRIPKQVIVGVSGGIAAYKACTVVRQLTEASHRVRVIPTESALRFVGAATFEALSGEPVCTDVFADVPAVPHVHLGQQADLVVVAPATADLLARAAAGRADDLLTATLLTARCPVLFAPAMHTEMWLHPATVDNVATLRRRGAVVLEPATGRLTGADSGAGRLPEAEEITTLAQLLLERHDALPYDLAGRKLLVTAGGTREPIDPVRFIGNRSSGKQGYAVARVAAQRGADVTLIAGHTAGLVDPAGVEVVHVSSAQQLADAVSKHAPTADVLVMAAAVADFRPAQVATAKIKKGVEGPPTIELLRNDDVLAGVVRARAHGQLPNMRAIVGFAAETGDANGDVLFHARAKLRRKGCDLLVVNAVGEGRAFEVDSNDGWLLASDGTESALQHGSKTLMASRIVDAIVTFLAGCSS
UniProt P9WFT3, whole entry: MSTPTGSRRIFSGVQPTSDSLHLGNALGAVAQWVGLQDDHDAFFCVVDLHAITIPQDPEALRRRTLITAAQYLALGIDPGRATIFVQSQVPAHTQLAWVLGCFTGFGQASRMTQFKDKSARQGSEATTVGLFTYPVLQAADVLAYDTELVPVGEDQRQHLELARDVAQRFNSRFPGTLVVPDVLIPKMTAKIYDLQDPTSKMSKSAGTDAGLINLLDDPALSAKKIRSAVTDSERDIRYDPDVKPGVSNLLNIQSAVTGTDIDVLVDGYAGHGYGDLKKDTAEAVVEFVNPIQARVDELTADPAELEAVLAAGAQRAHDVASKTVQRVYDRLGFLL

Each number is a percent effect as filed.
The record does not define 0% and 100%; most values in the screen are far below 50% and negative numbers occur (in some assays of this library far below -100).
Compounds were drawn at random from those tested, without regard to their results.
A dash means the value is not listed here; it may have been measured.

Pks13 thioesterase: 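Enzyme assay of the thioesterase domain of polyketide synthase 13; the read-out is not stated. Target: Polyketide synthase Pks13, Mycobacterium tuberculosis (UniProt I6X8D2). Concentration: 30 µM. Higher reads as stronger inhibition (inferred from which compounds were picked for retests). Of about 67,000 compounds tested this way, about 300 (0.46%) reached 50% or more in at least one test.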
CoaBC: 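Enzyme assay of CoaBC with a phosphate dye (Biomol Green) read at 650 nm. Target: Coenzyme A biosynthesis protein CoaBC, Mycobacterium tuberculosis (UniProt P9WNZ1). Tested at 30 µM. Direction is inferred from only a few compounds that gave an IC50; most scored high, so higher reads as stronger inhibition. Most strong results did not repeat in a second test. About 67,000 compounds were tested under these conditions; 0.06% (about 40) showed 50% or more at least once.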
Leishmania in macrophages: 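Cell assay of Leishmania donovani living inside macrophages; the read-out is not stated. Concentration: 30 µM. Direction is inferred from retests: higher values go with stronger inhibition. About 69,000 compounds were tested under these conditions; 1.5% (about 1,000) showed 50% or more at least once.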
MtTrpRS: 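Enzyme assay of tryptophanyl-tRNA synthetase; the read-out is not stated. Target: Tryptophan-tRNA ligase, Mycobacterium tuberculosis (UniProt P9WFT3). Concentration: 10 µM. Higher most likely means stronger inhibition; the record gives no direction and few retests gave an IC50. Of about 65,000 compounds tested this way, about 64 (0.098%) reached 50% or more in at least one test.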

- O=C(O)C(F)(F)F.OCCOCc1ncn2c1CN(Cc1cccs1)CCC2 | Leishmania in macrophages: -7.825%
- CC(C)c1nc(NS(=O)(=O)c2ccccc2Cl)no1 | Pks13 thioesterase: 0.2314%; CoaBC: 9.375%; Leishmania in macrophages: 31.5%; MtTrpRS: 2.023%
- CNC(=O)COc1ccccc1CNC1CCc2ncnn2C1 (centres undefined) | CoaBC: 10.36%; Leishmania in macrophages: 8.506%; MtTrpRS: 2.747%
- Cc1ccccc1OC1CCN(CC(=O)Nc2cnn(C)c2C)CC1 | Pks13 thioesterase: 3.579%; CoaBC: 6.888%; MtTrpRS: -9.579%
- [H][C@]12CC[C@@]3(N=C(C)NC3=O)[C@@]1([H])CN(C(=O)NCCc1ccccc1)C2 | Leishmania in macrophages: 18.94%
- Cc1ccc(CN(C)Cc2nc3c(cnn3C)c(=O)[nH]2)c(C)c1 | Pks13 thioesterase: 11.65%; CoaBC: 2.316%; Leishmania in macrophages: -44.16%; MtTrpRS: -1.484%
- COCC[C@]1(O)CCN(Cc2nc(C(C)C)cs2)C[C@H]1C | Pks13 thioesterase: -15.92%; CoaBC: 10.89%; Leishmania in macrophages: -0.9404%; MtTrpRS: 1.917%
- CCc1noc(CSc2n[nH]c(-c3ccccn3)n2)n1 | Pks13 thioesterase: -27.62%; CoaBC: 11.9%; Leishmania in macrophages: -12.88%; MtTrpRS: -0.1271%
- Cc1cccc(CC(=O)Nc2cnn(C3CCOC3)c2)c1 (centres undefined) | Pks13 thioesterase: 20.88%; CoaBC: -4.198%; Leishmania in macrophages: 9.417%; MtTrpRS: -2.227%
- CN(C)C1(CNc2nccc(C3CCCC3)n2)CCOCC1 | Pks13 thioesterase: -18.11%; CoaBC: -3.484%; Leishmania in macrophages: 13.33%; MtTrpRS: -2.888%
- CCOCC1CN(Cc2ccccn2)Cc2nn(CC3CC3)cc21.O=C(O)C(F)(F)F.O=C(O)C(F)(F)F (centres undefined) | Leishmania in macrophages: 18.88%
- O=C(NCCN1CCOCC1)NCc1ccc(-n2cccn2)cc1 | Pks13 thioesterase: -3.822%; CoaBC: 2.273%; Leishmania in macrophages: 26.61%; MtTrpRS: -0.4461%
- CC(C(=O)Nc1ccc(Cl)cn1)n1ccc(C(F)(F)F)n1 (centres undefined) | Pks13 thioesterase: 4.383%; CoaBC: 3.924%; Leishmania in macrophages: 46.39%; MtTrpRS: -0.000006%
- CNC(=O)[C@@H](c1ccccc1OC)N1CCC[C@H]1C(=O)NC(C)(C)C | Pks13 thioesterase: -31.2%; CoaBC: 4.516%; MtTrpRS: -1.952%
- CCCC(=O)N1CCC2(CC1)COC2 | Pks13 thioesterase: -28.32%; CoaBC: 3.053%; Leishmania in macrophages: 7.64%; MtTrpRS: -2.668%
- Cc1cc(C2CCCN2Cc2nnc(-c3ccco3)o2)on1 (centres undefined) | Pks13 thioesterase: -26.3%; CoaBC: 0.609%; Leishmania in macrophages: 9.541%; MtTrpRS: -0.859%
- O=C(NCC1CC1)[C@H]1C[C@H]2OCC[C@H]2N(CCc2ccccc2)C1 | Pks13 thioesterase: -19.89%; CoaBC: 4.627%; MtTrpRS: -1.133%
- O=C1O[C@@H]2CN(Cc3ccsc3)C[C@@H]2N1Cc1ccccn1 | Pks13 thioesterase: -8.215%; CoaBC: -2.479%; MtTrpRS: 0.2901%
- CC(C)(C)[S+]([O-])CCNC(=O)c1csc(NC2CC2)n1 (centres undefined) | Pks13 thioesterase: -8.996%; CoaBC: -3.045%; Leishmania in macrophages: -31.46%; MtTrpRS: -1.718%
- COc1ccc(C(=O)CCC(=O)NCc2ncc(C)s2)cc1F | Pks13 thioesterase: -4.662%; CoaBC: 2.058%; Leishmania in macrophages: 17.65%; MtTrpRS: -0.311%
- Cn1nccc1-c1ncc2c(c1C(=O)O)CCN(Cc1ccccc1)C2 | Pks13 thioesterase: 1.747%; CoaBC: -1.667%; MtTrpRS: 6.559%
- CC(C)n1nnnc1-c1ccc(NC(=O)N(C)CCN(C)C)cc1F | Pks13 thioesterase: -12.11%; CoaBC: 12.5%; Leishmania in macrophages: 24.65%; MtTrpRS: -1.214%
- CN(Cc1ccc(N(C)C)cc1)C(=O)NCc1nnc2n1CCC2 | Pks13 thioesterase: -4.002%; CoaBC: -5.263%; Leishmania in macrophages: 18.06%; MtTrpRS: -6.361%
- CN1CC(=O)N(c2ccsc2)CC12CCN(C(=O)N1CCCC1)C2 (centres undefined) | Pks13 thioesterase: 1.661%; CoaBC: 7.911%; MtTrpRS: -0.9931%
- [H][C@@]12CCN(C[C@@H]1C(=O)N1CCOCC1)[C@@H](Cn1cc(COC)nn1)C2 | Leishmania in macrophages: -19.8%
- CC(C)c1nnc(N2C[C@@H]3CC[C@H](C2)N(CC2CCC2)C3)s1 | Pks13 thioesterase: -5.071%; CoaBC: 6.553%; MtTrpRS: 3.024%

Repeated from the top, 2 entries:

| compound | Pks13 thioesterase | CoaBC | Leishmania in macrophages | MtTrpRS |
|---|---|---|---|---|
| `O=C(O)C(F)(F)F.OCCOCc1ncn2c1CN(Cc1cccs1)CCC2` | - | - | -7.825 | - |
| `CC(C)c1nc(NS(=O)(=O)c2ccccc2Cl)no1` | 0.2314 | 9.375 | 31.5 | 2.023 |

From ChEMBL document CHEMBL3988442, “University of Dundee, Small-Polar-MMV Screening Library” (2021).